Measurements from “University of Dundee, Small-Polar-MMV Screening Library” (2021), ChEMBL document CHEMBL3988442.

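Assay of Toxoplasma gondii numbers, read through their beta-galactosidase reporter with a colour substrate. Compounds at 50 µM. Higher reads as fewer parasites (inferred from which compounds were picked for retests). Size under these conditions: about 18,000 compounds, about 170 of them at 50% or above in at least one test.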

Values are the deposited “Percent Effect”, in %. The record does not define 0% and 100%; most values in the screen are far below 50% and negative numbers occur (in some assays of this library far below -100). The compounds are a random part of those screened.

| compound | effect |
|---|---|
| `CN(Cc1cccs1)C(=O)Cn1nnc2ccccc21` | -2.429 |
| `CC(C)(N)CNS(=O)(=O)c1ccc(C#N)c(Cl)c1` | -8.164 |
| `CCC1COCCN1C(=O)c1nccc2ccccc12` (stereo not shown) | 2.834 |
| `c1cc2c(cc1CN1CCCCC1)CNCCO2` | 19.16 |
| `CNC(=O)[C@@H](C)NC1CCCSC1` (stereo partly shown) | -4.852 |
| `COc1ccccc1C(=O)Nc1cc(Br)cn(C)c1=O` | -7.597 |
| `CN(C)c1ncccc1C(=O)Nc1ccc(C#N)cn1` | -1.886 |
| `COCc1nc(C)c(CNC(=O)c2cccc(C)n2)s1` | -2.838 |
| `CCOc1ccccc1NC(=O)Cn1ccnc1` | -6.94 |
| `CC(C)C(N)CN(C)C` (stereo not shown) | -7.157 |
| `O=C(c1c[nH]c2ncccc12)N1CCCC1` | -0.1385 |
| `Nc1ncc2n1CCC2` | 8.668 |
| `CN1CCC(NC(=O)c2ccc(=O)n(C)c2)C1` (stereo not shown) | -12.62 |
| `N#CC1(NC(=O)CN2CCn3ccnc3C2)CCCC1` | -4.942 |
| `CN1CCCCCC1C(=O)NCCc1ccncc1` (stereo not shown) | -3.538 |
| `CNC(=O)CCSCc1ccccc1` | -13.98 |
| `CC[C@@]1(O)CCN(Cc2noc(COC)n2)C[C@H]1O` | 4.731 |
| `CCN(CCn1cccn1)C(=O)c1cc(C)nc(N)n1` | -18.25 |
| `CC(=O)Nc1ccc(F)cc1OCC(F)F` | 3.33 |
| `OC1CCCN(Cc2cccc(F)c2F)C1` (stereo not shown) | 3.403 |
| `O=C(CCNC(=O)c1ccccc1F)Nc1nccs1` | 45.81 |
| `CN1N=C(C(N)=O)CCC1=O` | 2.36 |
| `CCCc1c(C(=O)NCCO)nnn1-c1ccccc1` | -4.087 |
| `CSCc1noc(CN(C)CCc2ccccn2)n1` | 2.259 |
| `CCOCCC(=O)N1CCC2(CCNCC2CO)CC1` (stereo not shown) | -0.599 |
| `CCCn1cc(CNc2nc(C3CC3)no2)cn1` | 2.609 |
| `CCCC1C(=O)NCCN1C(=O)c1ccc(Br)c(O)c1` (stereo not shown) | 0.1634 |
| `Cc1cc(=O)cc(C(=O)NCCCc2ccncc2)o1` | 15.6 |
| `c1c[nH]c(C2CCNCC2)n1` | -1.631 |
| `O=C(NCCc1ccc(F)c(F)c1)N1CCCC(O)C1` (stereo not shown) | -0.9446 |
| `CC(N)Cc1cccs1` (stereo not shown) | -12.91 |
| `N[C@H]1CCN(c2ccccc2)C1` | -4.138 |
| `COc1ccc(C(=O)N2CC[C@@H](N)[C@H](O)C2)cc1Cl` | 6.953 |
| `CCNC(=O)C1CC(=O)N(C2CCCCC2)C1` (stereo not shown) | 4.479 |
| `COc1cccc(CN2CCS(=O)(=O)CC2)c1OC` | -8.558 |
| `O=C1CN(C(=O)CN2CCCC2c2ccsc2)CCN1` (stereo not shown) | -10.58 |
| `COCCn1ccnc1CN1C[C@H]2CNC[C@H]2C1` | 14.06 |
| `CN1CCN(Cc2cccc3c2OCO3)CC1CCO` (stereo not shown) | 0.9936 |
| `CC1(C#N)CCN(CCn2cc(Cl)cn2)CC1` | 4.863 |
| `O=C(CN1CCn2ccnc2C1)NCC(F)(F)F` | -2.043 |
| `CN(CC(=O)NCCC#N)Cc1nc2ccccc2s1` | -8.856 |
| `NC(=O)c1ccc(CNC(=O)CC2C=CCC2)cc1` (stereo not shown) | 2.561 |
| `CCOC(=O)c1n[nH]c2c1CCCC2` | -27.03 |
| `COCCN(Cc1ccsc1)C(=O)CC1CCNC1` (stereo not shown) | 6.704 |
| `CCNc1nnc(SC(C)C)s1` | 39.27 |
| `COc1cc(I)c(C(=O)N2CCC2)cc1OC` | -10.51 |
| `CC(C)(C)c1cc(NC(=O)CN2CCC(O)CC2)on1` | -5.429 |
| `NC(=O)CCSCc1ccn(-c2ccccc2)n1` | 0.1083 |
| `CCCn1cc(CNC(=O)c2ccc(=O)[nH]c2)cn1` | 11.56 |
| `Cc1nc(C)c(C(=O)NCCC2CCCN2C)o1` (stereo not shown) | 41.14 |
| `O=C(NCc1nccs1)c1csc(NC2CC2)n1` | 6.462 |

Repeated from the top, 5 entries:

compound,effect
CN(Cc1cccs1)C(=O)Cn1nnc2ccccc21,-2.429
CC(C)(N)CNS(=O)(=O)c1ccc(C#N)c(Cl)c1,-8.164
CCC1COCCN1C(=O)c1nccc2ccccc12 (stereo not shown),2.834
c1cc2c(cc1CN1CCCCC1)CNCCO2,19.16
CNC(=O)[C@@H](C)NC1CCCSC1 (stereo partly shown),-4.852